The data set concerns the target DNA polymerase I (Pol I) (Escherichia coli) (UniProt P00582). Put plainly: BLI. To be noted: 5 mM Mg2+; residues 1-928.

The chains behind the UniProt entries cited, without tags or fusion partners. Where a name states a change or a piece, a line headed by the entry shows the natural chain unless it says otherwise.
UniProt P00582: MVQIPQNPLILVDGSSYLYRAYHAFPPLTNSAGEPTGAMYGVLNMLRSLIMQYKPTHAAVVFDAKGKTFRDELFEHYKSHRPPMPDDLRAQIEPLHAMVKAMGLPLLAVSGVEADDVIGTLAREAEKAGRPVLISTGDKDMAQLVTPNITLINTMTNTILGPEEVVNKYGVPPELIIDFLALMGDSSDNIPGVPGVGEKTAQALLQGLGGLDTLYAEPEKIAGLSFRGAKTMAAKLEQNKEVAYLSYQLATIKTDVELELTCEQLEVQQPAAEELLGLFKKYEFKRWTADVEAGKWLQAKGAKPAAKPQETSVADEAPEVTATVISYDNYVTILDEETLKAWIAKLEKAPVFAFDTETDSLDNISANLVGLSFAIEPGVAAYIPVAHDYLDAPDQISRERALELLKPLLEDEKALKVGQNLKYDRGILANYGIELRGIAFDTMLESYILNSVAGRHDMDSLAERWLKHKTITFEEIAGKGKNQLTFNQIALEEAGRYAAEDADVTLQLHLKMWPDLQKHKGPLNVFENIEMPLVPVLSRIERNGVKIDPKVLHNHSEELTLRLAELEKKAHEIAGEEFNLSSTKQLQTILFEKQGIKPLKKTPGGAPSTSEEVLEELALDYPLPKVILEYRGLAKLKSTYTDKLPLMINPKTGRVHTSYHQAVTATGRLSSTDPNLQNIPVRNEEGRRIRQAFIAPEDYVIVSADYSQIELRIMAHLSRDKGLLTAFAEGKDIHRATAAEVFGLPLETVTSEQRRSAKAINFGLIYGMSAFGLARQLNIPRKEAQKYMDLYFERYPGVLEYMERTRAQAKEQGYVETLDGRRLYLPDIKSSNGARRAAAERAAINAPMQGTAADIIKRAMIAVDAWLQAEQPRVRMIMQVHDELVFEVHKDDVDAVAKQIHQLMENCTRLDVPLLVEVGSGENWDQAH

The values below come from paper doi:10.1101/2022.08.02.502465.

For at least one entry, the source does not settle the construct or the ends of the probe.

Take “CGCTCACTGGCCGTCGTTTTACAACGTCGTGACTGGGAAAACCCTGGCGTTACC / GGTAACGCCAGGGTTTTCCCAGTC / ACGACGTTGTAAAACGACGGCCAGTGAGCG [nicked BLI substrate]”: the Kd amounted to 12 nM.
